Data reported in the supplement of paper PMC8728848.
The other results are listed elsewhere or left out.

Columns and labels:
Test in all cases: glycan array binding signal (z-score within array); higher = stronger binding
Details in all cases: glycan notation: IUPAC condensed, linker removed; mutation: R276L
[1] = molecular target: Neu5Ac(a2-6)Gal(b1-4)GlcNAc(b1-3)[Neu5Ac(a2-6)Gal(b1-4)GlcNAc(b1-6)]GalNAc
Summary of the method: (§1)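 From the Consortium for Functional Glycomics database, 3228 arrays were curated, keeping only those whose protein sequence was available. Binding is given as a within-array Z-score averaged across arrays sharing a protein sequence and across linkers. Negative Z-scores can be read as non-binding.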

[2] = molecular target: Neu5Ac(a2-6)Gal(b1-4)GlcNAc(b1-6)GalNAc
Summary of the method: as §1

[3] = molecular target: Neu5Ac(a2-6)Gal(b1-4)GlcNAc(b1-6)[Gal(b1-3)GlcNAc(b1-3)]Gal(b1-4)Glc
Summary of the method: as §1

[4] = molecular target: Neu5Ac(a2-6)Gal(b1-4)GlcNAc(b1-6)[Gal(b1-3)]GalNAc
Summary of the method: as §1

[5] = molecular target: Neu5Ac(a2-6)Gal(b1-4)GlcNAc6S
Summary of the method: as §1

Neu5Ac(a2-6)GalNAc = molecular target: Neu5Ac(a2-6)GalNAc
Summary of the method: as §1

[6] = molecular target: Neu5Ac(a2-6)GalNAc(b1-4)GlcNAc
Summary of the method: as §1

[7] = molecular target: Neu5Ac(a2-6)GalNAc(b1-4)GlcNAc6S
Summary of the method: as §1

[8] = molecular target: Neu5Ac(a2-6)GlcNAc(b1-4)GlcNAc
Summary of the method: as §1

[9] = molecular target: Neu5Ac(a2-6)GlcNAc(b1-4)GlcNAc(b1-4)GlcNAc
Summary of the method: as §1

Neu5Ac(a2-8)Neu5Ac = molecular target: Neu5Ac(a2-8)Neu5Ac
Summary of the method: as §1

[10] = molecular target: Neu5Ac(a2-8)Neu5Ac(a2-3)Gal(b1-3)GalNAc(b1-4)[Neu5Ac(a2-3)]Gal(b1-4)Glc
Summary of the method: as §1

[11] = molecular target: Neu5Ac(a2-8)Neu5Ac(a2-3)Gal(b1-3)GalNAc(b1-4)[Neu5Ac(a2-8)Neu5Ac(a2-3)]Gal(b1-4)Glc
Summary of the method: as §1

[12] = molecular target: Neu5Ac(a2-8)Neu5Ac(a2-3)Gal(b1-4)Glc
Summary of the method: as §1

[13] = molecular target: Neu5Ac(a2-8)Neu5Ac(a2-3)Gal(b1-4)GlcNAc
Summary of the method: as §1

[14] = molecular target: Neu5Ac(a2-8)Neu5Ac(a2-3)[Gal(b1-3)GalNAc(b1-4)]Gal(b1-4)Glc
Summary of the method: as §1

[15] = molecular target: Neu5Ac(a2-8)Neu5Ac(a2-3)[GalNAc(b1-4)]Gal(b1-4)Glc
Summary of the method: as §1

[16] = molecular target: Neu5Ac(a2-8)Neu5Ac(a2-8)Neu5Ac
Summary of the method: as §1

[17] = molecular target: Neu5Ac(a2-8)Neu5Ac(a2-8)Neu5Ac(a2-3)Gal(b1-4)Glc
Summary of the method: as §1

[18] = molecular target: Neu5Ac(a2-8)Neu5Ac(a2-8)Neu5Ac(a2-3)[Gal(b1-3)GalNAc(b1-4)]Gal(b1-4)Glc
Summary of the method: as §1

[19] = molecular target: Neu5Ac(a2-8)Neu5Ac(a2-8)Neu5Ac(a2-3)[GalNAc(b1-4)]Gal(b1-4)Glc
Summary of the method: as §1

[20] = molecular target: Neu5Ac(a2-8)Neu5Ac(a2-8)Neu5Ac(a2-8)Neu5Ac(a2-3)[GalNAc(b1-4)]Gal(b1-4)Glc
Summary of the method: as §1

[21] = molecular target: Neu5Ac(a2-8)Neu5Gc(a2-3)Gal(b1-4)GlcNAc
Summary of the method: as §1

[22] = molecular target: Neu5Ac(b2-6)Gal(b1-4)GlcNAc
Summary of the method: as §1

Neu5Ac(b2-6)GalNAc = molecular target: Neu5Ac(b2-6)GalNAc
Summary of the method: as §1

[23] = molecular target: Neu5Ac9Ac(a2-3)Gal(b1-3)GlcNAc
Summary of the method: as §1

[24] = molecular target: Neu5Ac9Ac(a2-3)Gal(b1-4)GlcNAc
Summary of the method: as §1

[25] = molecular target: Neu5Ac9Ac(a2-6)Gal(b1-4)GlcNAc
Summary of the method: as §1

[26] = molecular target: Neu5Gc(a2-3)Gal(b1-3)GlcNAc
Summary of the method: as §1

[27] = molecular target: Neu5Gc(a2-3)Gal(b1-3)[Fuc(a1-4)]GlcNAc
Summary of the method: as §1

Neu5Gc(a2-3)Gal(b1-4)Glc = molecular target: Neu5Gc(a2-3)Gal(b1-4)Glc
Summary of the method: as §1

[28] = molecular target: Neu5Gc(a2-3)Gal(b1-4)GlcNAc
Summary of the method: as §1

[29] = molecular target: Neu5Gc(a2-3)Gal(b1-4)GlcNAc(b1-3)Gal(b1-4)GlcNAc(b1-2)Man(a1-3)[Neu5Gc(a2-3)Gal(b1-4)GlcNAc(b1-3)Gal(b1-4)GlcNAc(b1-2)Man(a1-6)]Man(b1-4)GlcNAc(b1-4)GlcNAc
Summary of the method: as §1

[30] = molecular target: Neu5Gc(a2-3)Gal(b1-4)[Fuc(a1-3)]GlcNAc
Summary of the method: as §1

[31] = molecular target: Neu5Gc(a2-6)Gal(b1-4)GlcNAc
Summary of the method: as §1

Neu5Gc(a2-6)GalNAc = molecular target: Neu5Gc(a2-6)GalNAc
Summary of the method: as §1

[32] = molecular target: Neu5Gc(a2-8)Neu5Ac(a2-3)Gal(b1-4)GlcNAc
Summary of the method: as §1

[33] = molecular target: Neu5Gc(a2-8)Neu5Gc(a2-3)Gal(b1-4)GlcNAc
Summary of the method: as §1

B1: SUN4P (Saccharomyces cerevisiae), P53616 (protein)
chain: MGSSHHHHHHSSGLVPRGSHNGSIYGDLADFSGPYEKFEDGTIPCGQFPSGQGVIPISWLDEGGWSGVENTDTSTGGSCKEGSYCSYACQPGMSKTQWPSDQPSDGRSIGGLLCKDGYLYRSNTDTDYLCEWGVDAAYVVSELSNDVAICLTDYPGTENMVIPTYVQAGDSLPLTVVDQDTYYTWQGLKTSAQYYVNNAGISVEDACVWGSSSSGVGNWAPLNFGAGSSDGVAYLSLIPNPNNGNALNFNVKIVAADDSSTVNGECIYENGSFSGGSDGCTVSVTAGKAKFVLYN
**Q.** For B1, which “glycan array binding signal (z-score)” value [1] is on record?
**A.** The value was 0.832.

**Q.** And the “glycan array binding signal (z-score)” value [2]?
**A.** The value was -0.352.

**Q.** And the “glycan array binding signal (z-score)” value [3]?
**A.** The value was -0.554.

**Q.** What about the “glycan array binding signal (z-score)” value [4] of the same binder?
**A.** The value was 0.503.

**Q.** And the “glycan array binding signal (z-score)” value [5]?
**A.** The value was 0.449.

**Q.** What about the “glycan array binding signal (z-score)” value (Neu5Ac(a2-6)GalNAc) of the same binder?
**A.** The value was -0.566.

**Q.** And the “glycan array binding signal (z-score)” value [6]?
**A.** Its value is 0.461.

**Q.** What about the “glycan array binding signal (z-score)” value [7] of the same binder?
**A.** Its value is -0.756.

**Q.** And the “glycan array binding signal (z-score)” value [8]?
**A.** Its value is 2.98.

**Q.** What about the “glycan array binding signal (z-score)” value [9] of the same binder?
**A.** Its value is 0.508.

**Q.** And the “glycan array binding signal (z-score)” value (Neu5Ac(a2-8)Neu5Ac)?
**A.** The value was 0.741.

**Q.** What about the “glycan array binding signal (z-score)” value [10] of the same binder?
**A.** The value was -1.01.

**Q.** And the “glycan array binding signal (z-score)” value [11]?
**A.** The value was 0.907.

**Q.** What about the “glycan array binding signal (z-score)” value [12] of the same binder?
**A.** Its value is -0.866.

**Q.** And the “glycan array binding signal (z-score)” value [13]?
**A.** Its value is -0.812.

**Q.** And the “glycan array binding signal (z-score)” value [14]?
**A.** Its value is 1.75.

**Q.** And the “glycan array binding signal (z-score)” value [15]?
**A.** The value was -0.678.

**Q.** What about the “glycan array binding signal (z-score)” value [16] of the same binder?
**A.** Its value is 0.797.

**Q.** And the “glycan array binding signal (z-score)” value [17]?
**A.** Its value is -0.601.

**Q.** What about the “glycan array binding signal (z-score)” value [18] of the same binder?
**A.** Its value is -0.916.

**Q.** And the “glycan array binding signal (z-score)” value [19]?
**A.** The value was -1.

**Q.** And the “glycan array binding signal (z-score)” value [20]?
**A.** Its value is 1.61.

**Q.** What about the “glycan array binding signal (z-score)” value [21] of the same binder?
**A.** Its value is -0.234.

**Q.** What about the “glycan array binding signal (z-score)” value [22] of the same binder?
**A.** Its value is 0.153.

**Q.** And the “glycan array binding signal (z-score)” value (Neu5Ac(b2-6)GalNAc)?
**A.** Its value is -0.858.

**Q.** What about the “glycan array binding signal (z-score)” value [23] of the same binder?
**A.** Its value is -0.326.

**Q.** And the “glycan array binding signal (z-score)” value [24]?
**A.** The value was 0.625.

**Q.** What about the “glycan array binding signal (z-score)” value [25] of the same binder?
**A.** The value was -1.81.

**Q.** And the “glycan array binding signal (z-score)” value [26]?
**A.** Its value is 0.424.

**Q.** What about the “glycan array binding signal (z-score)” value [27] of the same binder?
**A.** Its value is 0.694.

**Q.** What about the “glycan array binding signal (z-score)” value (Neu5Gc(a2-3)Gal(b1-4)Glc) of the same binder?
**A.** Its value is 0.359.

**Q.** What about the “glycan array binding signal (z-score)” value [28] of the same binder?
**A.** Its value is -0.339.

**Q.** And the “glycan array binding signal (z-score)” value [29]?
**A.** Its value is -0.663.

**Q.** And the “glycan array binding signal (z-score)” value [30]?
**A.** The value was 0.059.

**Q.** What about the “glycan array binding signal (z-score)” value [31] of the same binder?
**A.** Its value is -0.649.

**Q.** What about the “glycan array binding signal (z-score)” value (Neu5Gc(a2-6)GalNAc) of the same binder?
**A.** Its value is -0.067.

**Q.** What about the “glycan array binding signal (z-score)” value [32] of the same binder?
**A.** The value was 0.464.

**Q.** And the “glycan array binding signal (z-score)” value [33]?
**A.** The value was -0.206.
